Results reported in publication PMC5461540, “MOB1 Mediated Phospho-recognition in the Core Mammalian Hippo Pathway” (Molecular & Cellular Proteomics : MCP, 2017).
No constants are given. Whether binding was seen depends on the method and setting. In cells and extracts the contact can be indirect. Binding can be weak; no strength is given.

By UniProt entry, the sequences of proteins in these tests, tags left out. Where a name states a change or a piece, a line headed by the entry shows the natural chain unless it says otherwise.
UniProt Q7L9L4: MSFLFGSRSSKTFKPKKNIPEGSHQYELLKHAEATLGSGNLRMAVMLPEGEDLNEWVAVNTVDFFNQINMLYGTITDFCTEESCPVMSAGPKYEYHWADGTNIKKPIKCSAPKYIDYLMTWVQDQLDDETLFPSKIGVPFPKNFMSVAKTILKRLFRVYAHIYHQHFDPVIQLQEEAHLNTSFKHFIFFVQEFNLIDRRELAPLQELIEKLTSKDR

Molecular target: GST-MOB1B (human) (UniProt Q7L9L4)
Test: pull-down; ~1 ug GST-MOB1B on glutathione-Sepharose beads, 2 h with lysate (CHAPS lysis buffer: 40 mM Hepes pH 7.5, 120 mM NaCl, 1 mM EDTA, 0.3% CHAPS) of cells expressing FLAG- or BirA*-FLAG-tagged MST1 constructs after 150 nM okadaic acid for 2.5 h; anti-FLAG immunoblot; only the target purified

binding	Substance
binds	3xFLAG-MST1 wild-type (from UniProt Q13043-1 1-487)
binds	BirA*-FLAG-tagged full-length MST1 (from UniProt Q13043-1 1-487)
